Where “and” joins values, the source holds several entries; their conditions need not be identical. Equal entries are not always repeated. This list was built around the results that the source calls inconclusive (neither active nor inactive); the mix of calls is not that of the screen. Where the call is inconclusive, the potency comes from a doubtful curve fit. Calls of active or inactive are those of the source. Calls follow the shape of the dose curve; as a rule, active = well fitted cell-killing curve with a large enough effect; inconclusive = small, poorly fitted or top-dose-only effect; inactive = flat fitted curve, though single readings scatter.
assay: Cell Viability - LYMP1-003 - Assay at 24 hr (AID 963); conditions: LYMP1-003 lymphoblastoid cell viability; series mostly up to 92.2 µM
Excerpt: NIH Chemical Genomics Center [NCGC]
NIH Molecular Libraries Screening Centers Network [MLSCN]
National Institutes of Environmental Health Sciences [NIEHS]
National Toxicology Program [NTP]
We have developed a 1536-well cell-based assay for quantitative high throughput screening (qHTS) against a number of cell lines to determine in vitro cytotoxicity of small molecules. This particular assay uses a human lymphoblastoid cell line (LYMP1-003) purchased from Coriell Institute for Medical Research.
NCGC Assay Protocol Summary:
The CellTiter-Glo luminescent cell viability assay (Promega) is a homogeneous method to measure the number of viable cells in culture. The end point readout of this assay is based on quantitation of intracellular ATP, an indicator of metabolic activity, using the luciferase reaction. Luciferase catalyzes the oxidation of beetle Luciferin to oxyluciferin and light in the presence of ATP. The luminescent signal is proportional to amount of ATP present.
Using the CellTiter-Glo luminescent cell viability assay, the amount of cellular ATP was measured in the lymphoblastoid cell line with complete culture medium following compound treatment for 24 hours. The assay was performed in opaque white Kalypsys 1536-well plates. In the screen, tetraoctylammonium bromide was used as positive control. Library compounds were measured for their ability to cause acute toxicity in the cell line, as reflected by a decrease in intracellular ATP levels, in a concentration-dependent manner. […] AC50 values were determined from concentration-response data modeled with the standard Hill equation.
qHTS protocol for CellTiter Glo lymphoblastoid cellular assay
[Step] [Parameter] [Value] [Description]
1. Reagent; 5 uL; 2500 lymphoblastoid cells/well
2. Time; 5 hr; 37 C incubation
4. Controls; 23 nL; Tetraoctylammonium bromide 6.4pM to 92 uM
5. Time; 24 hr; 37 C incubation
6. Reagent; 5 uL; CellTiter Glo reagent
7. Time; 30 min; Room Temperature
8. Detection; Luminescence; Viewlux plate reader
Keywords: cell viability, cytotoxicity, lymphoblastoid cell line, luminescence, NTPHTS, NTPHTS_NCGC, NIEHS, DSSTox, MLSMR, MLSCN, NIH Roadmap, qHTS, NCGC
Potency is read from the fitted curve at half-maximal effect.

| Compound | Potency |
| --- | --- |
| CN1CSC(=S)N(C)C1 | inconclusive: 31.6 µM [cytotoxic, partial curve] |
| ClC1=C(Cl)C2(Cl)C3C4C=CC(C4)C3C1(Cl)C2(Cl)Cl (stereo not given) | inconclusive: 39.8 µM [cytotoxic, partial curve] |
| O=C1C2(Cl)C3(Cl)C4(Cl)C(Cl)(Cl)C5(Cl)C3(Cl)C1(Cl)C5(Cl)C24Cl (stereo not given) | active: 31.6 µM and active: 50.1 µM |
| [CH3][Hg][Cl] | active: 50.1 µM |
| COC(=O)C1=C(C)NC(C)=C(C(=O)OC)C1c1ccccc1[N+](=O)[O-] | active: 50.1 µM |
| CC(C)CC(C)Nc1ccc(Nc2ccccc2)cc1 (stereo not given) | active: 50.1 µM |
| O=C1C=CC(=O)C=C1 | inactive |
| CCCCCCCCn1sccc1=O | active: 25.1 µM |
| ClC1=C(Cl)C2(Cl)C3C(Cl)C=CC3C1(Cl)C2(Cl)Cl (stereo not given) | inconclusive: 39.8 µM [cytotoxic, partial curve] |
| Oc1ccccc1O | inconclusive: 10 µM [cytotoxic, full curve] |
| O=S1OCC2C(CO1)C1(Cl)C(Cl)=C(Cl)C2(Cl)C1(Cl)Cl (stereo not given) | inconclusive: 39.8 µM [cytotoxic, partial curve] |
| CN(C)c1ccc(N)cc1 | inconclusive: 39.8 µM [cytotoxic, partial curve] |
| Clc1ccc(C(c2ccc(Cl)cc2)C(Cl)Cl)cc1 | inconclusive: 50.1 µM [cytotoxic, partial curve] |
| Oc1ccc(Cl)cc1Sc1cc(Cl)ccc1O | inconclusive: 39.8 µM [cytotoxic, partial curve] |
| CC(=O)Oc1ccccc1C(=O)Nc1ncc([N+](=O)[O-])s1 | inconclusive: 25.1 µM [cytotoxic, partial curve] |

Arranged by molecular weight (descending): part of the list above

| Compound | Potency |
| --- | --- |
| O=S1OCC2C(CO1)C1(Cl)C(Cl)=C(Cl)C2(Cl)C1(Cl)Cl (stereo not given) | inconclusive: 39.8 µM [cytotoxic, partial curve] |
| CC(=O)Oc1ccccc1C(=O)Nc1ncc([N+](=O)[O-])s1 | inconclusive: 25.1 µM [cytotoxic, partial curve] |
| CN1CSC(=S)N(C)C1 | inconclusive: 31.6 µM [cytotoxic, partial curve] |
